Results: US8835615B2, “2′-fluorine-4′-substituted-nucleoside analogues, preparation methods and uses thereof” (priority 2007, dated 2014)
At least one read-out could not be matched to a standard name with certainty.

Tested on: VSVG/HIV-luc
Assay: Pharmacological model of wild type HIV-1 replication (VSVG/HIV-luc, Cell 293)
Assay type: cell-based
Details: prior to infection, Cell 293, DMSO

Structure (SMILES) | Inhibition ratio (%) (1 × 10^−7 mol/L) | Inhibition ratio (%) (1 × 10^−8 mol/L) | Inhibition ratio (%) (1 × 10^−5 mol/L) | Inhibition ratio (%) (1 × 10^−6 mol/L) | Inhibition ratio (%) (1 × 10^−9 mol/L)
Cc1cn([C@H]2C[C@H](N=[N+]=[N-])[C@@H](CO)O2)c(=O)[nH]c1=O [AZT, Zidovudine, reference compound] | 97.2 ± 1.1% | 54.1 ± 2.0% | – | – | –
[N-]=[N+]=NC1(CO)OC(n2ccc(N)nc2=O)C(F)C1O (stereo not drawn) [Compound 15] | 100% | 72 ± 6% | 100% | 100% | –
O=C1Nc2ccc(Cl)cc2[C@@](C#CC2CC2)(C(F)(F)F)O1 [EFV, Efavirenz] | – | 100% | – | – | 55.2 ± 0.6%
Cc1ccnc2c1NC(=O)c1cccnc1N2C1CC1 [NVP, Nevirapine, reference compound] | 73.1 ± 5.2% | 18.8 ± 2.8% | – | – | –
Cc1cn([C@H]2C=C[C@@H](CO)O2)c(=O)[nH]c1=O [d4T, Stavudine] | 24.0 ± 1.1% | – | – | 92.9 ± 1.6% | –
